The values that follow come from publication PMC12670160, “A drug-repurposing screen of FDA- and EMA-approved drugs identifies two NF-κB inhibitors active against eumycetoma” (Journal of Antimicrobial Chemotherapy, 2025).

The subject of the assay is M. mycetomatis strain mm55. To be noted: primary screen, metabolic activity vs growth control, 96 h, 2 µM, inhibitor.

Where a name gives a salt, the structure may show the parent alone. Read-outs that look alike come from different tables or passages of the source. About 130 (2.5%) of roughly 5,300 compounds showed an effect of 50% or more. Some of the results follow.

On to `Clc1cccc(/C=N/C=N/c2cccc(Cl)c2)c1` [ONC0004453, 33dichlorobenzaldazine], for which the “% viability” value is recorded as 144.6%. Regarding `CCCC(CCC)C(=O)O` [ONC0005341, valproate sodium], the “% viability” value amounted to 115.6%.

Regarding `CN(C)CCCC1(c2ccc(F)cc2)OCc2cc(C#N)ccc21` (centres unmarked) [ONC0003807, citalopram], the “% viability” value is 64.39%. `CN(C)[C@@H](CCOc1cccc2ccccc12)c1ccccc1` [ONC0004885, dapoxetine hydrochloride priligy]: the “% viability” value was 112.5%. Still for that read-out and setting: for `Nc1nc2nn[nH]c2c(=O)[nH]1` [ONC0002792, azaguanine8] the value was 265.7%. In the case of `CC[C@H](Nc1ncnc2[nH]cnc12)c1nc2cccc(F)c2c(=O)n1-c1ccccc1` [ONC0005230, cal101 gs1101], the “% viability” value is reported as 109.6%. On to `Cc1ccccc1CN1CC2=C(CCN(Cc3ccccc3)C2=O)N2CCN=C12` [ONC0005082, tic10 analogue], for which the “% viability” value is on record as 71.17%. Regarding `O=C(Nc1ccc(F)cc1)N1CCc2ccccc2C1c1ccc(C(F)(F)F)cc1` (centres unmarked) [ONC0000140, tci2000], the “% viability” value amounted to 100.7%. Regarding `Cc1nccn1CCC(C(N)=O)(c1ccccc1)c1ccccc1` [ONC0001199, imidafenacin], the “% viability” value was found to be 96.37%.

Take `CC(C)c1noc(N2CCC(COc3ccc(-c4ccc(S(C)(=O)=O)cc4)nc3)CC2)n1` [ONC0004915, gsk1292263]: the “% viability” value is listed as 109.9%. Consider `O=C(NC1CCNCC1)c1n[nH]cc1NC(=O)c1c(Cl)cccc1Cl` [ONC0004841, at7519], for which the “% viability” value was determined as 120.1%. The same measure, in the same setting: for `CCCCCCOc1cc2c(cc1N(C)c1ncc(C(=O)O)cn1)C(C)(C)CCC2(C)C` [ONC0000258, pa452] the value was 77.13%; for `CN[C@@H]1CCc2[nH]c3ccc(C(N)=O)cc3c2C1` [ONC0005506, frovatriptan], 114.4%. As to `O=C(CCCc1ccc(-c2ccccc2F)cc1)Nc1ccc(O)cc1` [ONC0000116, cmpd1], the “% viability” value was 102.2%.

`O=C(O)/C=C/c1ccc(-c2ccc(O)c(C34CC5CC(CC(C5)C3)C4)c2)cc1` [ONC0001926, adarotene]: the “% viability” value was determined as 144.7%. Turning to `COc1ccc(-c2coc3cc(O)cc(O)c3c2=O)cc1` [ONC0004943, biochanin a 4methylgenistein], the “% viability” value is listed as 91.76%. As to `C[S+]([O-])c1ccc(-c2nc(-c3ccncc3)c(-c3ccc(F)cc3)[nH]2)cc1` (centres unmarked) [ONC0000881, sb203580], the “% viability” value came out at 87.12%. For the molecule `C=C1/C(=C\C=C2/CCC[C@]3(C)[C@@H]([C@H](C)/C=C/[C@H](C)C(C)(C)O)CC[C@@H]23)C[C@@H](O)C[C@@H]1O` [ONC0001290, ercalcitriol], the “% viability” value was 72.21%.

Consider `C[C@H](NC(=O)/C(C#N)=C/c1ccc(O)c(O)c1)c1ccccc1` [ONC0001705, tyrphostinag835], for which the “% viability” value came to 111.6%.

Consider `COC1=CC(=O)C[C@@H](C)[C@]12Oc1c(Cl)c(OC)cc(OC)c1C2=O` [ONC0003303, griseofulvin], for which the “% viability” value stood at 56.87%. `CCC(=O)NCC[C@@H]1CCc2ccc3c(c21)CCO3` [ONC0003970, ramelteon]: the “% viability” value is 71.52%. Turning to `Cc1cn2c(N)c(Cl)cc(C(=O)NCC3CCN(CC(C)C)CC3)c2n1` [ONC0001591, cj033466], the “% viability” value is reported as 72.45%. The same measure, in the same setting: for `CC(C)(C)c1cc(/C=C(\C#N)C(N)=S)cc(C(C)(C)C)c1O` [ONC0005258, tyrphostin ag 879 ag 879] the value was 127.6%; for `COc1cccc(OCCCN)c1-c1cc(Nc2cnc(C#N)cn2)n[nH]1` [ONC0001824, prexasertib dihydrochloride], 106.5%.

In the case of `Fc1ccc(-n2cc(CCCCN3CCC4(CC3)OCc3ccccc34)c3ccccc32)cc1` [ONC0002044, siramesine hydrochloride], the “% viability” value is on record as 116.1%. Turning to `c1ccc2c(c1)OCC(C1=NCCN1)O2` (centres unmarked) [ONC0005424, idazoxan hydrochloride], the “% viability” value was found to be 108.3%. On the same count and under the same terms, for `NC(N)=NCCC[C@H](N)C(=O)NCC(=O)N[C@@H](CC(=O)O)C(=O)N[C@@H](CO)C(=O)O` [ONC0002282, argglyaspser] the value was 101.1%; for `CN(C)CCC(c1ccc(Cl)cc1)c1ccccn1` (centres unmarked) [ONC0004829, chlorpheniramine maleate], 80.68%; for `OCC(O)CN1CCN(c2ccccc2)CC1` (centres unmarked) [ONC0003237, dropropizine], 84.34%. As to `COc1ccccc1N1CCN(CCN2C(=O)CC3(CCCC3)CC2=O)CC1` [ONC0002563, bmy7378], the “% viability” value worked out at 52.22%. Still for that read-out and setting: next, `CCN(CC)CCCCC1CCN(CC(=O)N2c3ccccc3C(=O)Nc3cccnc32)CC1` [ONC0003539, aqra741]: 108%. Still for that read-out and setting: for `CC(C)CCNc1ncccc1C(=O)N1CCN(Cc2ccccc2)CC1` [ONC0001776, nsi189] the value was 105.6%. With `COc1ccc(COc2cc3oc(=O)c4cc(C(C)O)ccc4c3cc2OC)cc1` (centres unmarked) [ONC0004999, palomid 529], the “% viability” value was 90.49%.

On to `C=C(C)[C@@H]1CCC(C)=C[C@H]1c1c(OC)cc(C)cc1OC` [ONC0002995, o1918], for which the “% viability” value worked out at 82.98%.

`COC1=C(OC)C(=O)C(C/C=C(\C)CC/C=C(\C)CC/C=C(\C)CC/C=C(\C)CC/C=C(\C)CC/C=C(\C)CC/C=C(\C)CC/C=C(\C)CC/C=C(\C)CCC=C(C)C)=C(C)C1=O` [ONC0005494, coenzymeq10]: the “% viability” value stood at 87.43%. Regarding `Nc1ccc(F)cc1NC(=O)c1ccc(CNC(=O)/C=C/c2cccnc2)cc1` [ONC0001791, chidamide], the “% viability” value is 119.7%.

For `CCCCC[C@H](O)/C=C/[C@@H]1[C@H]2C/C(=C/CCCC(=O)O)O[C@H]2C[C@H]1O` [ONC0005564, prostaglandin i2sodium], the “% viability” value amounted to 72.27%. In the case of `COc1ccc2cc1Oc1ccc(cc1)C[C@H]1c3c(cc4c(c3Oc3cc5c(cc3OC)CCN(C)[C@@H]5C2)OCO4)CCN1C` [ONC0004186, cepharanthine], the “% viability” value came out at 88.07%. Regarding `CC(C)N[C@@H]1CCn2c(=O)[nH]c3cccc(c32)[C@H]1O` [ONC0001941, zilpaterolhcl], the “% viability” value amounted to 67.69%. In the case of `CCC(C)C(CC)C(N)=O` (centres unmarked) [ONC0005576, valnoctamide], the “% viability” value was determined as 52.5%. With `C=CCN1CCCC1CNC(=O)c1cc2[nH]nnc2cc1OC` (centres unmarked) [ONC0005109, alizapride hydrochloride], the “% viability” value amounted to 99.16%. In the case of `CN(C)CC/C=C1/c2ccccc2COc2ccccc21` [ONC0000649, doxepin hydrochloride], the “% viability” value is 114.1%. In the case of `CC(=O)NCCc1c(Cc2ccccc2)[nH]c2ccccc12` [ONC0000131, luzindole], the “% viability” value came out at 89.06%. As for `O=C(O)c1ccccc1Nc1cccc(OCc2ccc3ccccc3n2)c1` [ONC0001414, sr2640], the “% viability” value turned out to be 39.31%. Still for that read-out and setting: for `Nc1ncnc2c1nc(Br)n2[C@@H]1O[C@@H]2COP(=O)(O)O[C@H]2[C@H]1O` [ONC0001655, 8bromocamp] the value was 61.1%; for `CC(C)(C)NC(=O)[C@@H]1CN(Cc2cccnc2)CCN1C[C@@H](O)C[C@@H](Cc1ccccc1)C(=O)N[C@H]1c2ccccc2C[C@H]1O` [ONC0003454, indinavir], 88.37%. As for `O=C(Nc1ccc(C(F)(F)F)cn1)N1CCN(c2ncccc2C(F)(F)F)CC1` [ONC0000122, jnj17203212], the “% viability” value amounted to 104%. Turning to `CC(=O)O[C@H]1Cc2ccccc2N(C(N)=O)c2ccccc21` [ONC0002100, eslicarbazepine acetate], the “% viability” value was 73.47%. Same read-out and setting: for `OC[C@H]1O[C@@H](Oc2cc3c(O)cc(O)cc3[o+]c2-c2ccc(O)c(O)c2)[C@H](O)[C@@H](O)[C@@H]1O` [ONC0001073, kuromanin chloride] the value was 60.47%; for `O=C(O)c1ccc(N2C(=O)/C(=C/c3ccc(-c4ccc([N+](=O)[O-])cc4)o3)C=C2c2ccccc2)cc1` [ONC0005117, 4e1rcat], 73.26%.

In the case of `CCOC(=O)c1ccc(N2NC(=O)/C(=C/c3ccc([N+](=O)[O-])o3)C2=O)cc1` [ONC0005037, pyr41], the “% viability” value is reported as 64.91%. For the molecule `COc1ccc(-c2cnc3c(-c4cccc5ncccc45)cnn3c2)cc1` [ONC0005150, ml347], the “% viability” value (Madurella mycetomatis metabolic activity at 2µM (%)) came out at 135.6%. On to `CCC[C@@H]1CC2=CC(=O)CC[C@]2(C)[C@H]2CC[C@@]3(C)[C@@H](CC[C@@]3(O)CCC(=O)O)[C@H]12` [ONC0001504, ru28318], for which the “% viability” value is 109.5%. Consider `Cc1cc(/C=C2\SC(=O)N(c3ccccc3)C2=O)c(C)n1-c1cccnc1` [ONC0002552, icrt14], for which the “% viability” value came out at 66.69%. With `COC(=O)Nc1nc2cc(C(=O)c3ccc(F)cc3)ccc2[nH]1` [ONC0004284, flubendazole], the “% viability” value amounted to 56.28%. As for `CC[C@]1(O)C[C@@H]2CN(CCc3c([nH]c4ccccc34)[C@@](C(=O)OC)(c3cc4c(cc3OC)N(C)[C@H]3[C@@](O)(C(=O)OC)[C@H](OC(C)=O)[C@]5(CC)C=CCN6CC[C@]43[C@@H]65)C2)C1.O=S(=O)(O)O` [ONC0001979, vinblastine sulfate], the “% viability” value is 92.29%. Consider `O=C1c2ccccc2C(Cc2ccncc2)(Cc2ccncc2)c2ccccc21` [ONC0001701, xe991], for which the “% viability” value worked out at 53.63%.

Regarding `CC[N+]1(C)CCCC(OC(=O)C(O)(c2ccccc2)c2ccccc2)C1` (centres unmarked) [ONC0002856, pipenzolate bromide], the “% viability” value was determined as 101.8%. In the case of `CC[C@@H]1C(=O)N(C)c2cnc(Nc3ccc(C(=O)NC4CCN(C)CC4)cc3OC)nc2N1C1CCCC1` [ONC0004589, bi 2536], the “% viability” value is 63.71%.
